# PubChem BioAssay AID743255 (National Center for Advancing Translational Sciences (NCATS), 2014)
# Chains of the proteins cited; added tags and fusions are not shown. Lines headed by an entry give the natural chain unless they say otherwise; changes in a name come on top.
# UniProt O94782: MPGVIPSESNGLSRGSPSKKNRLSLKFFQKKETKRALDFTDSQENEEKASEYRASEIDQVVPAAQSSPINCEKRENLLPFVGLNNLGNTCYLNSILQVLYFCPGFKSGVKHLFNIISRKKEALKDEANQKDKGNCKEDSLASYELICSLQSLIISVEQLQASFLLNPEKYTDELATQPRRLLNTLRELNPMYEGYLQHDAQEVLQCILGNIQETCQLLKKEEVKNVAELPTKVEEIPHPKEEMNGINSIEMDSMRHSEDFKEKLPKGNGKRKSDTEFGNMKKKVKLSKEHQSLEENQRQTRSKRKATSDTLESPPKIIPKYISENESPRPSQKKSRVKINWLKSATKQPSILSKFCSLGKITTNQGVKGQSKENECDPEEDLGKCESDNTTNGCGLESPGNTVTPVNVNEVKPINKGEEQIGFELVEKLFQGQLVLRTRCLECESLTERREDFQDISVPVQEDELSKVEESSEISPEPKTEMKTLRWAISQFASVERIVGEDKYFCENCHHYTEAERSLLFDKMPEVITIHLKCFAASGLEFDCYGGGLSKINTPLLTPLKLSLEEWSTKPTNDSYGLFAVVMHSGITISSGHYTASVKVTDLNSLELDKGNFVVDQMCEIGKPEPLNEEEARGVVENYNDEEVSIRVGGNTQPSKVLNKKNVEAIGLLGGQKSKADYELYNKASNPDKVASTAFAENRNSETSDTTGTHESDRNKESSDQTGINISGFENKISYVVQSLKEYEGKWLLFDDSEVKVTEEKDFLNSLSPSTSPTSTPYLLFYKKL
# The campaign covered roughly 390,000 compounds. About 910 (0.23%) were called active. The inconclusive results got no clear call from the source; some entries with a clear call stand among them for comparison. The call rests on the fitted dose curve; in most records, active means well fitted inhibition curve with a large enough effect; inconclusive means small, poorly fitted or top-dose-only effect; inactive means no such curve, though single readings can be large or run the other way. Potencies beside an inconclusive call are fits to weak or partial responses and may not hold up.
# Target: Ubiquitin carboxyl-terminal hydrolase 1 (Homo sapiens) (UniProt O94782)
# Assay: Inhibitors of USP1/UAF1: Primary Screen; further: nearly all actives have a fitted effect of over 60% in size
# Details: recombinant USP1/UAF1, Ub-Rhodamine cleavage fluorescence; activity change, negative = inhibition: at 57.1 µM (top of the series)
# How it was run: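 In this screen, compounds sit with the deubiquitinase complex (1nM) for 15 min at room temperature before Ub-Rho is added at 150nM final. Fluorescence rise is then followed for 6 reads every 60 seconds.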
# On the % scale 0 is the no-effect control and ±100 the full control effect; potency means the concentration at half of the fitted maximal effect.
Compound,Potency,"activity change, negative = inhibition"
Cc1cc(C(=O)COc2ccc(Br)cc2F)c(C)n1CC1CCCO1 (stereo unspecified),"inconclusive: 0.398 µM [inhibitor, full curve, poor fit]",
CCN(CCCNC(=O)c1cc(Nc2ccc(OC)cc2OC)nc2ccccc12)c1cccc(C)c1,"inconclusive: 3.98 µM [inhibitor, single point]",
COC1=CC(=O)C(C2CC(=O)c3c(O)cc(O)cc3O2)=CC1=O (stereo unspecified),"inconclusive: 44.7 µM [inhibitor, partial curve, poor fit]",
O=C(O)C(Cc1ccccc1)N1C(=O)/C(=C/C=C/c2ccco2)SC1=S (stereo unspecified),"inconclusive: 25.1 µM [inhibitor, partial curve]",
N=c1sccn1CC(=O)Nc1ccccc1Sc1ccccc1,,inactive: -0.6%
CCCCN(C)CC(O)Cn1cc(/C=C/C(=O)c2ccc(C)cc2)c2ccccc21 (stereo unspecified),"inconclusive: 50.1 µM [inhibitor, partial curve, poor fit]",
CN(C)c1cccc(C(=O)Nc2nc3ccccc3[nH]2)c1,"inconclusive: 7.08 µM [inhibitor, partial curve, poor fit]",
CC(C)c1ccc(NC(=O)Nc2csc3c2CCCC3)cc1,"inconclusive: 25.1 µM [inhibitor, partial curve]",
CCN(CC)C(=O)c1cc2sc3ccccc3c2s1,"inconclusive: 50.1 µM [inhibitor, partial curve, poor fit]",
Cc1[nH]n(-c2ccccc2)c(=O)c1N=Nc1ccc(C#N)cc1,,inactive: -1.66%
Cc1cccc(Nc2nc(NCc3ccco3)nc(N)c2[N+](=O)[O-])c1,"inconclusive: 28.2 µM [inhibitor, partial curve]",
O=C(N/N=C/c1ccncc1)c1ccc(NC(=O)c2cccc(Cl)c2)cc1,"inconclusive: 50.1 µM [inhibitor, partial curve, poor fit]",
CC1CCCC2(C1)NC(=S)c1c(sc3c1CCCC3)N2 (stereo unspecified),,inactive: -17.7%
COc1cccc(CNC(=O)c2cccs2)c1,"inconclusive: 5.01 µM [inhibitor, single point]",
Cc1ccc2nc(COc3ccccc3NC(=O)COc3ccccc3Cl)cc(=O)n2c1,"inconclusive: 35.5 µM [inhibitor, partial curve]",
CC(=O)NCCc1nc2cc(NC(=O)c3cccc([N+](=O)[O-])c3)ccc2n1C,"inconclusive: 50.1 µM [inhibitor, partial curve]",
COc1cccc(/C=C2\SC(=S)N(CCCC(=O)NC3=NCCS3)C2=O)c1,"inconclusive: 50.1 µM [inhibitor, partial curve, poor fit]",
Cc1ccc(N2C(=O)CSC23C(=O)N(CC(=O)NC2CCCCC2)c2ccccc23)cc1C (stereo unspecified),,inactive: -23.1%
Nn1c(Cc2ccc(F)cc2)n[nH]c1=S,,inactive: -7%
COc1ccc(F)c(CN(C)CC2CCCN(CCc3ccc(F)cc3)C2)c1 (stereo unspecified),,inactive: -28%
CC(C)(C)c1ccc(CCC2OCC(C[N+]3(C)CCOCC3)O2)cc1 (stereo unspecified),"inconclusive: 3.98 µM [inhibitor, full curve, poor fit]",
COCCCC1CCN(C(=O)C2CCC(=O)N(Cc3ccccc3F)C2)CC1 (stereo unspecified),,inactive: -14.2%

# No new results follow: an excerpt of the list.
Compound,Potency,"activity change, negative = inhibition"
Cc1cccc(Nc2nc(NCc3ccco3)nc(N)c2[N+](=O)[O-])c1,"inconclusive: 28.2 µM [inhibitor, partial curve]",
O=C(N/N=C/c1ccncc1)c1ccc(NC(=O)c2cccc(Cl)c2)cc1,"inconclusive: 50.1 µM [inhibitor, partial curve, poor fit]",

# Next records:

Compound,Potency,"activity change, negative = inhibition"
Cc1nc(/C(=N/O)C(N)=O)cs1,"inconclusive: 35.5 µM [inhibitor, partial curve]",
COc1cc(NCc2ccccc2)c2ncn(C(C)C)c2c1,"inconclusive: 7.08 µM [inhibitor, partial curve]",
CCCn1nc([N+](=O)[O-])c(C(C#N)c2nc3ccccc3s2)c(Cl)c1=O (stereo unspecified),"inconclusive: 25.1 µM [inhibitor, partial curve]",
O=C(CSc1nc2ccccc2[nH]1)Nc1ccc2c(c1)OCCO2,,inactive: -6.95%
COc1ccc(/C=N/NC(=O)CSc2ccccn2)cc1OC,"inconclusive: 20 µM [inhibitor, single point]",
CC(C)C(NC(=O)c1ccc2c(c1)OCO2)C(=O)N/N=C\c1ccco1 (stereo unspecified),"inconclusive: 11.2 µM [inhibitor, partial curve, poor fit]",
O=C(O)c1cc(Br)ccn1,,inactive: -4.08%
CCOC(=O)c1c(NC(=O)c2cc3nc(-c4ccccc4)cc(C(F)(F)F)n3n2)sc2c1CCC(C)C2 (stereo unspecified),"inconclusive: 35.5 µM [inhibitor, single point]",
CCCNC(=O)c1cnc2sc(N3CCCCCC3)nn2c1=O,"inconclusive: 0.708 µM [inhibitor, full curve, poor fit]",
CC1(c2nnc(-c3cccc(Cl)c3)o2)CC(c2ccccc2Br)=NO1 (stereo unspecified),"inconclusive: 50.1 µM [inhibitor, partial curve, poor fit]",
O=S(=O)(NC1CCCC1)c1ccc(Br)s1,"inconclusive: 3.16 µM [inhibitor, partial curve]",
CC(C)c1ccc(NC(=O)CCS(=O)(=O)c2cccc3nonc23)cc1,"inconclusive: 3160 µM [inhibitor, partial curve]",
CCc1ccc(-c2nn(CC(=O)NCc3ccccc3)c3c2cnc2ccc(C)cc23)cc1,,inactive: -20.1%
CCCN(C(=O)COc1cc(=O)n(CC)c2ccccc12)c1ccc(C(C)C)cc1,"inconclusive: 7.08 µM [inhibitor, partial curve]",
CCc1ccc(-n2nc(C)c3c(C(=O)Nc4cc(C)c(Cl)cc4OC)cc(C)nc32)cc1,"inconclusive: 2.51 µM [inhibitor, partial curve]",
Cc1cc(-c2nsc(=O)o2)c(S(C)(=O)=O)s1,"inconclusive: 15.8 µM [inhibitor, partial curve]",
COc1ccc(-c2csc(Nc3ccc(C)cn3)n2)cc1OC,,inactive: -23%
COC(=O)c1ccc(COc2cccc(C)c2C)cc1,"inconclusive: 1.26 µM [inhibitor, full curve, poor fit]",
Cc1ccc(CCNC(=O)c2cc(C)nc3c2c(C)nn3-c2ccc(C)cc2)cc1,"inconclusive: 35.5 µM [inhibitor, partial curve, poor fit]",
Cc1cc(C)nc(SCCC(=O)Nc2ccccc2)n1,"inconclusive: 31.6 µM [inhibitor, single point]",
CCOC(=O)N1CCN(c2c(NCCOC)c(=O)c2=O)CC1,"inconclusive: 6.31 µM [inhibitor, partial curve, poor fit]",
CS(=O)(=O)N1CCC(C(=O)NCCc2ccccc2)CC1,"inconclusive: 44.7 µM [inhibitor, partial curve, poor fit]",

Compound,Potency,"activity change, negative = inhibition"
O=C(NCC1CCCO1)c1cc2c([nH]c3ccccc32)c(-c2cccc(Cl)c2)n1 (stereo unspecified),"inconclusive: 8.91 µM [inhibitor, partial curve]",
COc1ccc(-c2csc(CCn3nc(C)cc3C)n2)cc1,"inconclusive: 35.5 µM [inhibitor, partial curve, poor fit]",
CN(C)S(=O)(=O)c1cccc(N=C2NN=C(c3ccccc3)CS2)c1,"inconclusive: 7.94 µM [inhibitor, partial curve]",
COc1cc(N)c2ncccc2c1Br,"inconclusive: 12.6 µM [inhibitor, partial curve]",
C=CCNCCCCOc1cccc(Br)c1,,inactive: -8.04%
C#Cc1ccc([C@@H]2C=C(C(=O)OCC=C)O[C@H](OCCCCO)C2)cc1,"inconclusive: 7.94 µM [inhibitor, partial curve]",
Cc1ncsc1C(=O)N1N=C2/C(=C/c3ccccc3)CCCC2C1c1ccccc1 (stereo unspecified),"inconclusive: 6.31 µM [inhibitor, partial curve]",
COc1ccc(NC2CCCN(C(=O)CSc3ccccn3)C2)cc1OC (stereo unspecified),"inconclusive: 28.2 µM [inhibitor, partial curve]",
NC(=O)N1CCN(CCCN2c3ccccc3Sc3cc(Cl)ccc32)CC1,"inconclusive: 44.7 µM [inhibitor, partial curve, poor fit]",
CCN1CCN(CC(=O)Nc2ccc3c(c2)OCO3)C(=O)C1=O,"inconclusive: 2.51 µM [inhibitor, full curve, poor fit]",
Cc1c(Cl)cccc1NC(=S)NCCc1ccccn1,"inconclusive: 56.2 µM [inhibitor, partial curve, poor fit]",
CCC(C)(O)c1[nH]c2ccc(C(=O)OC)cc2c1C (stereo unspecified),"inconclusive: 0.282 µM [inhibitor, full curve, poor fit]",
CCc1nc2sc3c(=O)[nH]cnc3c2c2c1CSC(C)(C)C2,,inactive: 3.44%
Cc1ccc2cc(CCNC(=O)C(C)C)c(=O)[nH]c2c1,"inconclusive: 50.1 µM [inhibitor, partial curve, poor fit]",
Cc1ccccc1-c1cccc([C@@H]2C[C@H]3[C@H](CON3C)CN2S(=O)(=O)c2ccccc2C)c1,"inconclusive: 100 µM [inhibitor, partial curve, poor fit]",
CCN(CC)S(=O)(=O)c1ccc(/C=C/C(=O)Nc2cccc(F)c2)cc1,,inactive: -7.94%
O=C(CCn1c(=O)c2cccn2c2cccnc21)NCc1ccccc1F,,inactive: -3.98%
COc1ccc(S(=O)(=O)Nc2cc3c(cc2N2CCOCC2)n(C)c(=O)n3C)cc1,"inconclusive: 0.794 µM [inhibitor, full curve]",
CSc1nc(O)c(C(c2ccc(OC(C)C)cc2)c2c(O)nc(SC)[nH]c2=O)c(=O)[nH]1,,inactive: 2.55%
O=C(COc1ccc(F)cc1)Nc1ccccc1OCc1cc(=O)n2ccccc2n1,"inconclusive: 7.08 µM [inhibitor, full curve, poor fit]",
COc1nc(-c2ccc(Cl)cc2)ccc1-c1noc(-c2cccs2)n1,"inconclusive: 44.7 µM [inhibitor, partial curve, poor fit]",
CCCN(CCC)CCNC(=O)c1cc2c(=O)n(C)c3ccccc3c2n1C,,inactive: -6.81%

# Whole records, looked up by structure:
# Cc1ccc2cc(CCNC(=O)C(C)C)c(=O)[nH]c2c1 reads Potency: inconclusive: 50.1 µM [inhibitor, partial curve, poor fit]
# COc1nc(-c2ccc(Cl)cc2)ccc1-c1noc(-c2cccs2)n1 reads Potency: inconclusive: 44.7 µM [inhibitor, partial curve, poor fit]
